In PubChem BioAssay AID1671192 (National Center for Advancing Translational Sciences (NCATS), 2021):
This list was built around the results that the source calls inconclusive (neither active nor inactive); the mix of calls is not that of the screen. A call without a number means that no potency is given here. Potencies of inconclusive entries are doubtful fits and often do not repeat. Calls of active or inactive are those of the source. Calls follow the shape of the dose curve; as a rule, active = well fitted curve in the direction sought with a large enough effect; inconclusive = small, poorly fitted or top-dose-only effect, or another doubt; inactive = no such curve, though single readings can be large or run the other way.

Sequences of proteins named here, by UniProt entry; tags and fusion partners are left off. A change or cut given only in a name is not applied to a line headed by its entry.
UniProt P16050: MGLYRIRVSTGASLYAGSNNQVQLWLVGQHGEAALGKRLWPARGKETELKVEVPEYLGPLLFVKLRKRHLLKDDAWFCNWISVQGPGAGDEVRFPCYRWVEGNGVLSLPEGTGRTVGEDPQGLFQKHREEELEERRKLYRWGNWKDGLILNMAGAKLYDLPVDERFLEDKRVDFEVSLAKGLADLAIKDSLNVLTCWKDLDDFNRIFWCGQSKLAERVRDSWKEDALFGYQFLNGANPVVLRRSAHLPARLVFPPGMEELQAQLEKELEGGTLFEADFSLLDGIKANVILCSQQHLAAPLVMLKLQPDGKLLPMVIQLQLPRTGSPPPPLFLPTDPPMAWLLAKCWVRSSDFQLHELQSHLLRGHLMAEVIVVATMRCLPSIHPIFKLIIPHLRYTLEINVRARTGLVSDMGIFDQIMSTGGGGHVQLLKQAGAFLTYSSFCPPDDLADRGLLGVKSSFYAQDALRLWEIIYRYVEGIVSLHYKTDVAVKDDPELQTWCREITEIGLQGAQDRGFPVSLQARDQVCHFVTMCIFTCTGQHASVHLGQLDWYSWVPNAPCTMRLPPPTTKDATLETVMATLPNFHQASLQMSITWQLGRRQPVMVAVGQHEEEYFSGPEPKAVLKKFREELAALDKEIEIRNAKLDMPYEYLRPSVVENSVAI

Target: Polyunsaturated fatty acid lipoxygenase ALOX15 (Homo sapiens) (UniProt P16050)
Experiment: Counterscreen qHTS for inhibitors of human arachidonate 12S-lipoxygenase (ALOX12): ALOX15 Assay
Conditions: purified ALOX15 enzyme activity; series mostly up to 233 µM
Description: Assay Provider: Theodore R. Holman Ph.D.
University of California, Santa Cruz, California
Human lipoxygenase 12hLO is a member of the closely related lipoxygenase family of enzymes which catalyze the site-specific oxidation of arachidonic acid to various hormone precursor molecules and as such is a candidate for drug development in a variety of disease areas, such as cancer and inflammation. Inhibition of 12hLO activity was screened by utilizing arachidonic acid as a substrate. The extent of hydroperoxide product formation was measured by a secondary chromogenic reaction in which xylenol orange (XO, Sigma-Aldrich, cat. number 39,818-7) reacts with the ferric ions produced from the reaction between the hydroperoxide and ferrous ions. The Fe (III)-XO complex is characterized with red-shifted absorbance at 560 nm. A purified preparation of human 12hLO was supplied by Dr. Holman laboratory, University of California, Santa Cruz.
An assay against arachidonate 15-lipoxygenase (ALOX15) was developed to assess selective inhibition against ALOX12. Desired compounds would show potent inhibition against ALOX12 and minimal to no inhibition against ALOX15.
SEQUENCE No. (e.g., 1, 2, 3, etc.); PARAMETER (e.g., Cells, Incubation, Reagent, etc.); VALUE; DESCRIPTION
1; Enzyme; 3 uL; 40 nM ALOX15 (15hLO-1) enzyme solution dispensed in 1536-well Greiner black, clear bottom plates.
2; Compound; 23 nL; compounds and controls were added.
3; Incubate; 15 min; room temperature.
4; Substrate; 1 uL; 50 uM arachidonic acid (final concentration).
5; Incubate; 30 min; room temperature.
6; Reagent; 4 uL; Fe-XO solution was added to each well.
8; Incubation; 30 min; room temperature
9; Detector; absorbance; Read 1 at 405 nm absorbance using ViewLux (PerkinElmer) CCD imager.
10; Detector; absorbance; Read 2 at 573 nm absorbance using ViewLux (PerkinElmer) CCD imager.
NOTES (numbers refer to sequence above)
1; 40 nM ALOX15 (final concentration) in buffer solution (25 mM Hepes, 0.01% Triton X-100, pH 7.5) was dispensed in columns 1, 2, 5 - 48. Column 1 is neutral (100% activity). Buffer only was dispensed in columns 3 and 4 as no enzyme negative controls. The plates were covered with metal lids with gas-exchange holes.
2; Compounds were pin transferred via a Kalypsys Pin Tool (Wako USA) in column 5 - 48. Control compound was transferred in column 2, titration of nordihydroguaiaretic acid (NDGA, Sigma-Aldrich, N5023) with top concentration of 10 mM in DMSO then 1:2 dilution in duplicate. Dilution factor of 23 nL into 4 uL final assay volume.
3; Covered assay plates were incubated for 15 min at room temperature.
4; Substrate was added to start the reaction; 50 uM arachidonic acid (Sigma-Aldrich, St. Louis, MO) was dispensed throughout the plate.
6; Chromogenic detection reagent solution (divalent iron/xylenol orange, Fe-XO) was added to each well: 200 uM xylenol orange, 300 uM ferrous ammonium sulfate prepared freshly in 50 mM sulfuric acid.
9, 10; Two absorbance readouts were obtained at 405 nm and at 573 nm using a ViewLux high-throughput CCD plate imager (PerkinElmer). The 573 to 405 (Read 2 / Read 1) absorbance ratio was used to compute reaction progress.

O=C(Cc1ccc(Cl)cc1)N1Cc2ccccc2CC2(CCCN2CC2CCNC2)C1 (stereo unspecified)
Potency: inactive

N#Cc1ccc(CN2CCC3(CC2)C(=O)Nc2ccccc23)cc1
Potency: inconclusive: 31.2 nM [inhibitor, full curve]

O=C1Nc2ccccc2C12CCN(Cc1ccc(C(F)(F)F)cc1)CC2
Potency: inconclusive: 62.2 nM [inhibitor, full curve, poor fit]

O=C1NC2(Cc3ccccc31)CN(CC1CC1)C2
Potency: inactive

O=C(O)C1=NOC2CN(Cc3ccccc3)CC12 (stereo unspecified)
Potency: inactive

c1cc2nc(C3CCNCC3)[nH]c2cn1
Potency: inconclusive: 71700 nM [inhibitor, partial curve, poor fit]
